# Results reported in the supplement of paper PMC11150407.
# Out of some 3,000 compounds screened, about 45 (2%) showed an effect of 50% or more. The list shows a part of the results.
# System: MOLM1 and UCSD/AML1 (averaged)
# Assay: cell viability relative to DMSO control (POC); higher = less growth inhibition
# Conditions: 1 µM; 72 h
# Description: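 Primary viability screen in the 3q26 EVI1-high AML cell lines MOLM1 and UCSD/AML1, compounds at 1 uM for 72 h. ATP CellTiter-Glo read-out given as percent viable over DMSO control (POC), averaged over duplicates. This mapping covers the TimTec NDL-3000 natural derivative library, whose compounds are identified by TimTec catalogue codes (ST...).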
row,SMILES,cell viability [%]
1,COc1c(C)c2c(c(OC)c1OC)COC2=O,102
2,COc1cc2c(cc1OC)C(=O)N(Cc1ccccc1)C(=O)C2=O,110
3,COCCOC(=O)c1c(C)n(-c2ccc(C)c(Cl)c2)c2c1cc(O)c1ccccc12,106
4,COc1cc2c(cc1OC)C(c1ccccc1[N+](=O)[O-])OCC2 (stereo not given),92.3
5,CSc1ccc(C(c2c(O)c3cccc(-c4ccccc4)c3[nH]c2=O)c2c(O)c3ccccc3n(-c3ccccc3)c2=O)cc1 (stereo not given),99.8
6,O=C(O)c1ccccc1C(=O)Nc1ccccc1,106
7,CCN(CC)C(=O)c1cc(NC(=O)c2cc(OC)c(OC)c(OC)c2)c(OC)c(OC)c1,103
8,Cc1[nH]c2ccccc2c1CCNC(=O)c1cc2ccccc2oc1=O,100
9,Cc1[nH]c2ccccc2c1CCNC(=O)c1ccc(=O)[nH]c1,96.3
10,COC(=O)c1cc(OC)c(OC)c(OC)c1NC(=O)C(=O)c1c(-c2ccccc2)[nH]c2ccccc12,102
11,CCCCOc1ccccc1NC(=O)c1cc(OC)c(OC)c(OC)c1,80.8
12,COc1cc(OC)cc(C(=O)NC(CC(=O)O)c2cccc([N+](=O)[O-])c2)c1 (stereo not given),99.8
13,COc1ccc(C(=O)c2sc3nc(C)cc(C)c3c2N)cc1OC,104
14,Cc1ccc(OCC(=O)NC(Cc2ccccc2)C(=O)O)cc1 (stereo not given),92.6
15,COc1cc(C2C(C(=O)OC(C)C)=C(C)NC3=C2C(=O)CC(C)(C)C3)cc(Br)c1O (stereo not given),101
16,O=C(O)Cc1c[nH]c2ccc(O)cc12,97.1
17,NC(=O)c1cc(O)c(O)c(O)c1,108
18,CCCCSc1ccc(NCCC(=O)c2ccc3c(c2)OCO3)cc1,89.7
19,Cn1nnnc1SCC1=C(C(=O)O)N2C(=O)C(NC(=O)C(O)c3ccccc3)C2SC1 (stereo not given),114
20,COc1cc(C(=O)Oc2ccc(C(C)(C)C)cc2Br)cc(OC)c1OC,89.6
21,NC(C(=O)O)C(O)c1ccccc1 (stereo not given),107
22,Cn1c(SCC(=O)Nc2ccc(Cl)cc2)nc2c(=O)[nH]cnc21,104
23,COc1cc(C2CC(=O)NC(C)=C2C(=O)OC(C)C)c(Br)c(OC)c1OC (stereo not given),93.7
24,Cc1c(C(=O)CSc2nc3ccccc3c(=O)[nH]2)c2ccccc2n1C,103
25,CCCCCOC(=O)C1=C(C)NC2=C(C(=O)CCC2)C1c1cc(Br)c(O)c(OC)c1 (stereo not given),87

row,SMILES,cell viability [%]
1,CCN(CC)C(=O)c1cc(=O)n(CC(=O)Nc2ccc(Br)cc2)c2ccccc12,103
2,Cc1cc(=O)oc2cc(OC(=O)c3ccc(C(C)(C)C)cc3)ccc12,87.6
3,COc1ccc(C(=O)CCNc2ccc(N3CCOCC3)c(Cl)c2)cc1OC,101
4,COC(=O)C(CCCCCCC(C)C)NC(=O)c1ccccc1 (stereo not given),81.7
5,CCc1ccc(NC(=O)c2cc3cc(Cl)ccc3oc2=N)cc1,103
6,CCOc1ccc(NC(=O)Cn2c(=O)cc(C(=O)N3CCc4ccccc4C3)c3ccccc32)cc1,109
7,Cc1cc(=O)[nH]c2ccc(S(=O)(=O)N3CCCc4ccccc43)cc12,97.2
8,O=c1[nH]c(=O)n(-c2nc(-c3ccccc3)oc2-c2ccccc2)cc1Cl,99.5
9,CCc1ccc(NC(=O)CSc2nc3c(=O)[nH]cnc3n2CC)cc1,94.6
10,COc1cccc(C2NC(CCSC)(C(=O)O)C3C(=O)N(C(C)C)C(=O)C23)c1O (stereo not given),103
11,O=C(N/N=C\c1cc(Br)cc(Br)c1OC(=O)c1cccc(F)c1)c1ccc2c(c1)OCO2,64.1
12,C[C@@H]1CC2C3CCC4=CC(=O)C=C[C@]4(C)[C@@]3(F)[C@@H](O)C[C@]2(C)[C@@]1(O)C(=O)COC(=O)c1cccc(S(=O)(=O)O)c1 (stereo not given in full),78.9
13,CCOc1cc(C2C(C(=O)OCC(C)C)=C(C)NC3=C2C(=O)CC(c2ccc(Cl)cc2)C3)ccc1O (stereo not given),96.6
14,COc1ccc(C(=O)/C=C/c2ccccc2)c(O)c1,101
15,O=C(CCNc1ccc(Br)cc1)c1ccc2c(c1)OCO2,88.7
16,CCOc1ccc2oc(=O)cc(CN3CCN(CC(=O)NC(C)(C)C)CC3)c2c1,101
17,Cn1c(=O)c2c(nc3n(CC(O)c4ccccc4)c(C45CC6CC(CC(C6)C4)C5)cn23)n(C)c1=O (stereo not given),86.2
18,COc1cc(OC)cc(C(=O)Nc2ccc3ncn(C)c3c2)c1,98.6
19,CCOc1ccc2oc(=O)cc(CN3CCN(CC(=O)Nc4ccc(F)c(Cl)c4)CC3)c2c1,97.9
20,O=C(O)C(Cc1c[nH]c2ccccc12)Nc1ccc([N+](=O)[O-])cc1[N+](=O)[O-] (stereo not given),99.5
21,Cc1ccc(N2C3=C(C(=O)CC(C)(C)C3)C(c3ccc(O)cc3)C3=C2CC(C)(C)CC3=O)cc1,89.8
22,O=C(Nc1cccc(C(F)(F)F)c1)c1cc2ccccc2oc1=O,107
23,CCCNC(=O)c1cc(=O)n(CC(=O)Nc2ccc(Cl)cc2)c2ccccc12,105
24,CCCCCCCOC(=O)C1=C(C)NC(=O)NC1c1cc(Br)c(O)c(OC)c1 (stereo not given),104
25,O=C(CSc1nccc(-c2cccs2)n1)c1ccc2c(c1)OCCO2,92.3

row,SMILES,cell viability [%]
1,COC(=O)NC(CCc1ccccc1)C(=O)O (stereo not given),103
2,N#CC1=C(N)Oc2c(c(=O)[nH]c3ccccc23)C1c1cccc(O)c1 (stereo not given),92.8
3,COc1cc(NC(=O)Cn2c(=O)cc(C(=O)N3CCc4ccccc4C3)c3ccccc32)cc(OC)c1,95.4
4,CCc1ccc(C2Nc3ccc4ccccc4c3-c3c2c(=O)oc2ccccc32)cc1 (stereo not given),105
5,COC(=O)C1=C(C)Nc2sc(C(N)=O)c(N)c2C1c1cc(OC)c(OC)c(OC)c1 (stereo not given),99.7
6,COc1cc(C(=O)Cc2ccccc2)c(O)cc1O,100
7,Cc1cc(C)cc(NC(=O)C2=Cc3ccccc3OC2)c1,92.7
8,COc1ccc2oc(=O)cc(CN3CCN(CC#N)CC3)c2c1,98.8
9,COc1ccc(/C=C/C(=O)c2ccc(O)cc2)cc1CSc1nc2ccccc2[nH]1,94.2
10,Cc1[nH]c2ccccc2c1CCNC(=O)/C(=C/c1ccccc1)NC(=O)c1ccccc1Br,84.6
11,CCOc1cc(C2NC(=O)NC(C)=C2C(=O)OC2CCCCCCC2)ccc1O (stereo not given),89.8
12,COc1cccc(C2CC(=O)c3ccccc3O2)c1OC (stereo not given),98.9
13,COc1cc(C(=O)NCCOc2ccccc2C)cc(OC)c1OC,96.6
14,O=C(/C=C/c1ccc(NC(=O)c2cc(NC(=O)C(c3ccccc3)c3ccccc3)cc(NC(=O)C(c3ccccc3)c3ccccc3)c2)cc1)c1ccccc1,94.6
15,O=C(CSc1cn[nH]n1)c1ccc2c(c1)OCCO2,101
16,CCc1ccc(Oc2coc3cc(OCC(=O)OC)ccc3c2=O)cc1,103
17,COC(=O)COc1ccc(OC)c(NC(=O)c2cc(=O)n(C)c(=O)n2C)c1,96.5
18,COc1cc(C(=N)SC)cc(OC)c1OC,105
19,CC(C)(C)c1ccc(S(=O)(=O)NC(Cc2c[nH]c3ccccc23)C(=O)O)cc1 (stereo not given),96.3
20,COc1ccc(C(=O)CC2OC(=O)c3c2ccc(OC)c3OC)c(O)c1 (stereo not given),92.7
21,COC(=O)c1ccc2c(c1)C(=O)/C(=C/c1ccc(O)cc1)O2,104
22,CCOc1ccccc1NC(=O)C(CC)Sc1nc2c(=O)[nH]cnc2n1C (stereo not given),99.1
23,Cc1cccc(C)c1NC(=O)Cn1c(=O)cc(C(=O)NCc2ccccc2)c2ccccc21,89.3
24,CSCCC(NC(=O)c1nc(-c2ccccc2)n(-c2ccc(C)cc2)n1)C(=O)O (stereo not given),104
25,Cc1cc2n(n1)C(c1coc3ccccc3c1=O)Nc1ccccc1-2 (stereo not given),97.7

# Two compounds drawn at random from those above:
row,SMILES,cell viability [%]
25,Cc1cc2n(n1)C(c1coc3ccccc3c1=O)Nc1ccccc1-2 (stereo not given),97.7
5,CCc1ccc(NC(=O)c2cc3cc(Cl)ccc3oc2=N)cc1,103

# Next structures.

row,SMILES,cell viability [%]
1,Cc1oc(-c2cccc(Cl)c2)nc1CSc1nc2c(=O)[nH]cnc2n1C,90.7
2,COc1ccc(C(=O)Nc2ccc(Br)cc2C)cc1OC,91.2
3,Cc1oc(-c2ccccc2)nc1CSc1nc2c(=O)[nH]cnc2n1C,112
4,Cc1ccc2c(CN3CCN(Cc4ccc(Cl)cc4)CC3)cc(=O)oc2c1,96.2
5,NC(CO)C(=O)Nc1ccc2ccccc2c1 (stereo not given),94.4
6,O=C(CCNc1ccc2c(c1)oc1ccccc12)c1ccc2c(c1)OCO2,99.4
7,Cc1ccc(S(=O)(=O)NC(Cc2ccccc2)C(=O)O)cc1 (stereo not given),100
8,COc1ccccc1C(=O)N/C(=C\c1ccco1)C(=O)NCCc1c(C)[nH]c2ccccc12,93.8
9,COC(=O)C1CC23CCC[N+]4(C)CCC5(c6ccccc6N(C(C)=O)C15CC2)C34 (stereo not given),115
10,Cc1cc(C)c(NC(=O)Cn2c(=O)cc(C(=O)N3CCOCC3)c3ccccc32)c(C)c1,100
11,CC(C)OC(=O)C1=C(N)Oc2c(oc(CO)cc2=O)C1c1c(F)cccc1Cl (stereo not given),98.2
12,Cc1cc2c(C(C)C)c(O)c(O)c(C=NCC34CC5CC(C)(CC(C)(C5)C3)C4)c2c(O)c1-c1c(C)cc2c(C(C)C)c(O)c(O)c(C=NC34CC5CC(C)(CC(C)(C5)C3)C4)c2c1O,109
13,CC(=O)NC(Cc1c[nH]c2ccccc12)C(=O)NC1CC1 (stereo not given),102
14,CCCc1[nH]nc2c1C(c1cc(OC)c3c(c1)OCO3)C(C#N)=C(N)O2 (stereo not given),99.2
15,N#Cc1cccc(NC(=O)Cn2c(=O)cc(C(=O)N3CCc4ccccc4C3)c3ccccc32)c1,90.2
16,CCOc1ccc2oc(=O)cc(CN3CCN(Cc4nc(-c5ccccc5OC)oc4C)CC3)c2c1,96.9
17,N#CC1=C(N)Oc2[nH]c(=O)[nH]c(=O)c2C1c1cccc2ccccc12 (stereo not given),100
18,CCOc1ccccc1Oc1c(C(F)(F)F)oc2c(CN3CCOCC3)c(O)ccc2c1=O,99.2
19,O=C(CC1(O)C(=O)N(Cc2ccccc2F)c2ccccc21)c1ccc2c(c1)OCO2 (stereo not given),99.5
20,O=C(Cn1c(=O)cc(C(=O)NCc2ccccc2)c2ccccc21)Nc1cccc(Br)c1,88.9
21,O=c1ccoc2ccc(F)cc12,93.3
22,O=C(O)CN(CC(=O)O)Cc1cc2c(c(O)c1O)C(=O)c1ccccc1C2=O,91.6
23,CC(=O)OCC1OC(OC(C)=O)C(OC(C)=O)C(OC(C)=O)C1OC(C)=O (stereo not given),109
24,CCC(CC)c1nc(Nc2ccc(C(=O)OC)cc2)c2ccccc2n1,70.5
25,COc1ccc(-c2cc(-c3ccc(C)cc3)c(C#N)c(=O)[nH]2)cc1OC,101

# An excerpt of these results, bar-delimited:
row | SMILES | cell viability [%]
6 | O=C(CCNc1ccc2c(c1)oc1ccccc12)c1ccc2c(c1)OCO2 | 99.4
9 | COC(=O)C1CC23CCC[N+]4(C)CCC5(c6ccccc6N(C(C)=O)C15CC2)C34 (stereo not given) | 115
10 | Cc1cc(C)c(NC(=O)Cn2c(=O)cc(C(=O)N3CCOCC3)c3ccccc32)c(C)c1 | 100
13 | CC(=O)NC(Cc1c[nH]c2ccccc12)C(=O)NC1CC1 (stereo not given) | 102
18 | CCOc1ccccc1Oc1c(C(F)(F)F)oc2c(CN3CCOCC3)c(O)ccc2c1=O | 99.2
25 | COc1ccc(-c2cc(-c3ccc(C)cc3)c(C#N)c(=O)[nH]2)cc1OC | 101
